# Assay results published in the supplement of paper PMC6411743.
# ± gives the standard deviation of the averaged measurements. The list shows a part of the results, in another mix than the full data.
# What was measured:
# Assay in all cases: NP40-soluble protein abundance relative to vehicle (solubility fold change) (ratio); higher = more soluble protein in presence of ATP
# [1] = biological target: T1, UniProt P31350 and related entries
# T1 sequence (whole entry): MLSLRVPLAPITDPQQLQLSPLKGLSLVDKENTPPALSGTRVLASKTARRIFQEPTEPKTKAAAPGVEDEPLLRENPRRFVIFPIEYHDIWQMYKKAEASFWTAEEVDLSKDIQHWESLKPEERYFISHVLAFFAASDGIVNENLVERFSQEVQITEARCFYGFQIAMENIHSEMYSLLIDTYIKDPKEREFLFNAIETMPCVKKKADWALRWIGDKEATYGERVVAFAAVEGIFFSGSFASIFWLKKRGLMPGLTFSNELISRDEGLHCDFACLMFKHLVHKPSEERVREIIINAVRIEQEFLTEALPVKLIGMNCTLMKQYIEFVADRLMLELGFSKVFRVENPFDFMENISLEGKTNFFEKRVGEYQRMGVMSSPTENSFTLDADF
# Outline: (§1)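 Values are fold changes against the detergent-processed vehicle, based on vsn-normalised intensities. Jurkat crude lysate was treated at eight concentrations from 0.1 to 10 mM (10 min at room temperature, then 3 min at 37 °C), solubilised with 0.8% NP40 and benzonase, ultracentrifuged and analysed by TMT-labelled LC-MS/MS over three independent experiments.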
# [2] = biological target: T2, UniProt P32856 and related entries
# T2 sequence (whole entry): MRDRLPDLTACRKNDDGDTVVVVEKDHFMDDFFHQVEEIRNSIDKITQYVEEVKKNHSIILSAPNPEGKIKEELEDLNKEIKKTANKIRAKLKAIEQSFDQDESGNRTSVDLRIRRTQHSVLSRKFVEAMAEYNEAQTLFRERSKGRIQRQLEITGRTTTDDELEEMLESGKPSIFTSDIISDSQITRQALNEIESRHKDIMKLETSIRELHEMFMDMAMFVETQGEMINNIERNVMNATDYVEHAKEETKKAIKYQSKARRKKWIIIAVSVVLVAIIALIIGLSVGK
# Outline: as §1
# [3] = biological target: T3, UniProt P33121 and related entries
# T3 sequence (whole entry): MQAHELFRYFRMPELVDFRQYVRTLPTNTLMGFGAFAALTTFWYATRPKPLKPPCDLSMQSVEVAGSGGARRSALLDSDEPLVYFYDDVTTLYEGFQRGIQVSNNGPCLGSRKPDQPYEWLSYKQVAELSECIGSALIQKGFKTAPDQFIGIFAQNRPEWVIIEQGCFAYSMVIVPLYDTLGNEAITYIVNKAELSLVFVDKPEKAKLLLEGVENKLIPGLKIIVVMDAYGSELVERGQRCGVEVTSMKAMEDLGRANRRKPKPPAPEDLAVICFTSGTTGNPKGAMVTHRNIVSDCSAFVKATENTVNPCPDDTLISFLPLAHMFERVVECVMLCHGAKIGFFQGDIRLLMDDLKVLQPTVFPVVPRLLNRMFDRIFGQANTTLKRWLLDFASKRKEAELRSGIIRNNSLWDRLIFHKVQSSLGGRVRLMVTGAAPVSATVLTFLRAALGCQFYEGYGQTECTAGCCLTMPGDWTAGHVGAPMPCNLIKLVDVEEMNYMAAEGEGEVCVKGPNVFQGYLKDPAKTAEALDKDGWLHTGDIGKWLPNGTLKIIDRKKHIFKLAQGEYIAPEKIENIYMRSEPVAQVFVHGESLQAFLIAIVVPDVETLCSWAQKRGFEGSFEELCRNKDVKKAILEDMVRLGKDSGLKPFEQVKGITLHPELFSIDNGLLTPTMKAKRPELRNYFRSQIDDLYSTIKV
# Outline: as §1
# [4] = biological target: T4, UniProt P35613 and related entries
# T4 sequence (whole entry): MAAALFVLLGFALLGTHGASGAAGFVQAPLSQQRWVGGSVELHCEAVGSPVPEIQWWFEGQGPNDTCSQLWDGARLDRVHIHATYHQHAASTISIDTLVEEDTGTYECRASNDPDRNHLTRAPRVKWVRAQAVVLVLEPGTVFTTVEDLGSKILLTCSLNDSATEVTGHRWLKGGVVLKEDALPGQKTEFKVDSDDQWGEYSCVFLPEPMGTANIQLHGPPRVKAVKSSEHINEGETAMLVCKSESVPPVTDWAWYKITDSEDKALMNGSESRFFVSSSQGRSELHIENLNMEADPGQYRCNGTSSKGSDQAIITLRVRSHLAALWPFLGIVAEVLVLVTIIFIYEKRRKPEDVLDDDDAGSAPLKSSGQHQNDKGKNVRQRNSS
# Outline: as §1
# [5] = biological target: T5, UniProt P35626
# T5 sequence (whole entry): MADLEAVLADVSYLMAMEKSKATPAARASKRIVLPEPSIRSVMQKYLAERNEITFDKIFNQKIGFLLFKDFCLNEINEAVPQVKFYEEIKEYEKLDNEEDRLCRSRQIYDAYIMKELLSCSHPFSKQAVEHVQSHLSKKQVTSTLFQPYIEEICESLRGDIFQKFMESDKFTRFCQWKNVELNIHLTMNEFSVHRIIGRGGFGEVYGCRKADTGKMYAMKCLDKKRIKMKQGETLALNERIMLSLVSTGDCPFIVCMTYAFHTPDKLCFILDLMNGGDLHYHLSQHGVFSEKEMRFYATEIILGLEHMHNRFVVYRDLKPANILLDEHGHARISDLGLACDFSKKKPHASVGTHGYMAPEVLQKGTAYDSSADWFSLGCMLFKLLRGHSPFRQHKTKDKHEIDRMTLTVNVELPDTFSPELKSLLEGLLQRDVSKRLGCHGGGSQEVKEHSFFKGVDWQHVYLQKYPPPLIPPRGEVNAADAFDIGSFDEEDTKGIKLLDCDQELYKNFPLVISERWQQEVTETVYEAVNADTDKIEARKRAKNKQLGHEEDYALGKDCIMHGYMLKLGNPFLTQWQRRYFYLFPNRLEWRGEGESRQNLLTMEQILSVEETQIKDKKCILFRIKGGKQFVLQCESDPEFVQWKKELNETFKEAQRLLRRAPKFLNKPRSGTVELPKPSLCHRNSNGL
# Outline: as §1
# [6] = biological target: T6, YWHAB (UniProt P31946)
# T6 sequence (whole entry): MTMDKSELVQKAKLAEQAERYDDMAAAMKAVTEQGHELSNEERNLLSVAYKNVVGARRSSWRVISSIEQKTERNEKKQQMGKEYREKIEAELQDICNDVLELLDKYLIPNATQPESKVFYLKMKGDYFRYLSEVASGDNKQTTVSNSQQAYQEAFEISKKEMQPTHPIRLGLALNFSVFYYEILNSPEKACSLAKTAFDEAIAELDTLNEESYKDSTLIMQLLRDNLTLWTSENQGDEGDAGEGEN
# Outline: as §1
structure (smiles),measurement,setting,value
Nc1ncnc2c1ncn2[C@@H]1O[C@H](COP(=O)(O)OP(=O)(O)OP(=O)(O)O)[C@@H](O)[C@H]1O [adenosine triphosphate],NP40-soluble protein abundance,[1]; concentration: 1mM,1.04 ± 0.15
same,NP40-soluble protein abundance,[1]; concentration: 2mM,1.04 ± 0.14
same,NP40-soluble protein abundance,[1]; concentration: 4mM,1.03 ± 0.13
same,NP40-soluble protein abundance,[1]; concentration: 6mM,0.984 ± 0.15
same,NP40-soluble protein abundance,[1]; concentration: 8mM,1.03 ± 0.14
same,NP40-soluble protein abundance,[1]; concentration: 10mM,0.998 ± 0.088
same,NP40-soluble protein abundance,[2]; concentration: 1mM,1.02 ± 0.013
same,NP40-soluble protein abundance,[2]; concentration: 2mM,1.01 ± 0.03
same,NP40-soluble protein abundance,[2]; concentration: 4mM,1.01 ± 0.028
same,NP40-soluble protein abundance,[2]; concentration: 6mM,1.03 ± 0.047
same,NP40-soluble protein abundance,[2]; concentration: 8mM,1.003 ± 0.0046
same,NP40-soluble protein abundance,[2]; concentration: 10mM,0.9941 ± 0.008
same,NP40-soluble protein abundance,[3]; concentration: 1mM,1.06 ± 0.092
same,NP40-soluble protein abundance,[3]; concentration: 2mM,1.02 ± 0.085
same,NP40-soluble protein abundance,[3]; concentration: 4mM,1.03 ± 0.091
same,NP40-soluble protein abundance,[3]; concentration: 6mM,1.01 ± 0.12
same,NP40-soluble protein abundance,[3]; concentration: 8mM,1.03 ± 0.095
same,NP40-soluble protein abundance,[3]; concentration: 10mM,1.02 ± 0.07
same,NP40-soluble protein abundance,[4]; concentration: 1mM,0.943 ± 0.064
same,NP40-soluble protein abundance,[4]; concentration: 2mM,0.943 ± 0.021
same,NP40-soluble protein abundance,[4]; concentration: 4mM,0.936 ± 0.065
same,NP40-soluble protein abundance,[4]; concentration: 6mM,0.972 ± 0.011
same,NP40-soluble protein abundance,[4]; concentration: 8mM,0.935 ± 0.069
same,NP40-soluble protein abundance,[4]; concentration: 10mM,0.877 ± 0.081
same,NP40-soluble protein abundance,[5]; concentration: 1mM,1.06 ± 0.053
same,NP40-soluble protein abundance,[5]; concentration: 2mM,1.03 ± 0.048
same,NP40-soluble protein abundance,[5]; concentration: 4mM,1.05 ± 0.033
same,NP40-soluble protein abundance,[5]; concentration: 6mM,1.02 ± 0.046
same,NP40-soluble protein abundance,[5]; concentration: 8mM,1.05 ± 0.015
same,NP40-soluble protein abundance,[5]; concentration: 10mM,1.02 ± 0.035
same,NP40-soluble protein abundance,[6]; concentration: 1mM,0.998 ± 0.13
same,NP40-soluble protein abundance,[6]; concentration: 2mM,0.947 ± 0.062
same,NP40-soluble protein abundance,[6]; concentration: 4mM,0.936 ± 0.034
same,NP40-soluble protein abundance,[6]; concentration: 6mM,0.989 ± 0.088
same,NP40-soluble protein abundance,[6]; concentration: 8mM,0.925 ± 0.027
same,NP40-soluble protein abundance,[6]; concentration: 10mM,0.842 ± 0.075

# Part of the list above, set out differently:
structure (smiles)	measurement	setting	value
Nc1ncnc2c1ncn2[C@@H]1O[C@H](COP(=O)(O)OP(=O)(O)OP(=O)(O)O)[C@@H](O)[C@H]1O [adenosine triphosphate]	NP40-soluble protein abundance	[4]; concentration: 2mM	0.943 ± 0.021
same	NP40-soluble protein abundance	[4]; concentration: 4mM	0.936 ± 0.065
